This passage reports binding results from publication PMC6981148.

Chains of the proteins cited; added tags and fusions are not shown. Residues count along the entry.
UniProt P07996, residues 19-1170: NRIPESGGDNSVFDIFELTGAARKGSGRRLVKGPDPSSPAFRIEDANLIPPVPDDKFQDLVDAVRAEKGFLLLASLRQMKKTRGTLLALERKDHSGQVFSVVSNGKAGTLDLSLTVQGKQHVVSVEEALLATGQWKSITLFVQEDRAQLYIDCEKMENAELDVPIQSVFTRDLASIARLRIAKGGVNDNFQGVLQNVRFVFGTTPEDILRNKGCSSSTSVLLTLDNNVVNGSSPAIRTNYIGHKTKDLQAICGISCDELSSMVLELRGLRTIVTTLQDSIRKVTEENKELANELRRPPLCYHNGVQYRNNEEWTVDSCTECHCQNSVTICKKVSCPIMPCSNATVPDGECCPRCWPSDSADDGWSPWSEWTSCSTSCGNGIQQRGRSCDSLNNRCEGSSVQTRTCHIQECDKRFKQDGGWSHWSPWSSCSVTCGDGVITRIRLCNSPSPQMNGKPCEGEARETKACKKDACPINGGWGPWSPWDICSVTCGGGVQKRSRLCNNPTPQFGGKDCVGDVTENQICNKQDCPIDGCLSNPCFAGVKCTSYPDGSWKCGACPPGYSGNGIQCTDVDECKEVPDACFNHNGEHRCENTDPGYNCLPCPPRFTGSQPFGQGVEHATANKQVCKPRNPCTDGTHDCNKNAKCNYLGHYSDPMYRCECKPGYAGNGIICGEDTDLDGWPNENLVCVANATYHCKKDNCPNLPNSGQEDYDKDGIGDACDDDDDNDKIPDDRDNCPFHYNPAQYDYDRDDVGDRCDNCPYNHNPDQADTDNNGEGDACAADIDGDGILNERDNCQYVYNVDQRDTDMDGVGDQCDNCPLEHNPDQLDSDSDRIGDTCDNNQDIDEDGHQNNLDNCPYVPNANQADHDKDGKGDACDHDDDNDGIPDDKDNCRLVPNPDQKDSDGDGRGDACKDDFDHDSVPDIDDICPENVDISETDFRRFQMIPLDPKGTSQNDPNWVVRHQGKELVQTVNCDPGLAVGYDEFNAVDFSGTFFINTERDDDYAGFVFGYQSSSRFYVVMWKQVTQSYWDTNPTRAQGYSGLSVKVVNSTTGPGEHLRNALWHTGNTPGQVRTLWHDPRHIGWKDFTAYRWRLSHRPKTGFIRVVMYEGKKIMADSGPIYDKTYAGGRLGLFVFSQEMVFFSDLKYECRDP
UniProt P40337: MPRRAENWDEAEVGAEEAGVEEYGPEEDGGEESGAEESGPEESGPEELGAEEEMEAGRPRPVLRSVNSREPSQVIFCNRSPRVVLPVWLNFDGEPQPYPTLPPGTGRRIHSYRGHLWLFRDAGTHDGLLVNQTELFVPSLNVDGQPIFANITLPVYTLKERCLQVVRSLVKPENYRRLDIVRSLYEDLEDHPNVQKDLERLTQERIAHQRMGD

The target of assay [1] is thrombospondin-1 (TSP-1) (human (endogenous in ccRCC cell lines)) (UniProt P07996). As to the kind of experiment: co-IP; total lysates (500 ug) of pVHL-positive cells in RIPA buffer (150 mM NaCl, 10 mM Tris HCl, 1% SDS, 1% nonidet P-40, 1% sodium deoxycholate, pH 7.4); immunoprecipitation with anti-pVHL or anti-TSP-1 antibodies, 4 °C, 16 hours, protein G; western blot against pVHL and TSP-1.

Assay [2] has as its target von Hippel-Lindau protein (pVHL) (human) (UniProt P40337). The description is as above.

These are yes or no findings as the source states them, for the method shown. Binding seen in cells or lysates may run through a third protein.

Consider “von Hippel-Lindau protein (pVHL) (from UniProt P40337 1-213)”, for which the binding entry in assay [1] was “no binding”.

As for “thrombospondin-1 (TSP-1) (from UniProt P07996 19-1170)”, the binding entry in assay [2] is recorded as “no binding”.
